Measurements reported in PubChem BioAssay AID743454 (Peter MacCallum Cancer Centre, 2014).
This is an unselected part of about 18,000 reagents. 450 of all reagents (2.5%) were called active. 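Single biological run; no consistent viability z cut-off exists, so the class columns, not z-scores, define the calls.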 Entries without a mark were called inactive. No sequences are given here.

Assay: 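Knock-downs lowering viability or raising caspase 3/7 activity in vorinostat-treated resistant cells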 (primary screen)
Cell system: human HCT116-VR colon cancer cells, selected for vorinostat resistance
Knock-down reagent: siRNA pool against human genes, 40 nM siRNA pool
Time to read-out: vorinostat for 24 h, read-out about 72 h after transfection
Challenge: vorinostat at 2.5 µM final
Detection: 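Cell viability by CellTiter-Fluor and caspase 3/7 activity by luminescence, each scaled to mock wells per plate, duplicates averaged, then robust z-scored over all plates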
Direction: viability robust z-score: higher = more viable cells than screen typical; caspase robust z-score: higher = more caspase 3/7 activity than screen typical
Active means: 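a knock-down is a hit when classed RV1 or RV2 for lowered viability, or CA1 or CA2 for caspase activation; those lethal without drug were dropped; hits were retested singly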

| Gene | PubChem SID | viability hit class | caspase hit class | viability robust z-score | caspase robust z-score |
| --- | --- | --- | --- | --- | --- |
| HLA-DQA2 | SID152155584 | no change (active) | CA1 (caspase activation) | -1.12 | 6.63 |
| COL5A1 | SID152152641 | no change | no change | 1.25 | 0.05 |
| SLC23A1 | SID134312507 | no change | no change | -0.44 | 1.12 |
| ARL1 | SID134323067 | no change | no change | 0.58 | -0.32 |
| FUNDC2 | SID152148255 | no change | no change | -0.18 | -0.88 |
| AP1S2 | SID134321381 | no change | no change | -0.54 | -0.32 |
| MRPS27 | SID134317153 | no change | no change | 1.06 | 1.48 |
| ZNF169 | SID152152965 | no change | no change | 0.78 | -0.8 |
| SLC2A11 | SID134312557 | no change | no change | -0.63 | 3.09 |
| CCRL2 | SID135620994 | no change | no change | 1.16 | -1.19 |
| GOLGA2P5 | SID134318026 | no change | no change | -1.52 | -1.14 |
| PRPH2 | SID135622054 | no change | no change | 0.02 | -0.84 |
| SSX4 | SID134321181 | no change | no change | 0.72 | -0.78 |
| TTLL11 | SID135623132 | no change | no change | 1.7 | 0.28 |
| DENND6A | SID134320494 | no change | no change | 0.1 | 1.56 |
| CLN5 | SID134323897 | no change | no change | 0.23 | 1.43 |
| POGLUT1 | SID134320144 | no change | no change | 0.93 | 0.94 |
| SELENOO | SID135621762 | no change | no change | 0.16 | 0.9 |
| B3GNT4 | SID134317666 | no change | no change | 0.97 | 0.22 |
| OR10K1 | SID134329872 | no change | no change | 1.29 | 0.36 |
| GM2A | SID134315408 | no change | no change | 0.52 | -0.49 |
| UGT1A3 | SID134317979 | no change | no change | -0.21 | 1.34 |
| TUBGCP6 | SID152154905 | no change | no change | -0.36 | 0.8 |
| CDHR5 | SID152152363 | no change | no change | -0.49 | 2.12 |
| TMEM258 | SID152152273 | no change | no change | -1.15 | 1.84 |
| HTR3A | SID134311622 | no change | no change | -0.08 | -0.1 |
| TBC1D9B | SID134329359 | no change | no change | 0.8 | -0.92 |
| MYCN | SID152155014 | no change | no change | 0.56 | -0.66 |
| HTRA3 | SID134311324 | no change | no change | -0.92 | 2.21 |
| LGI4 | SID134320974 | no change | no change | -0.67 | 1.49 |
| SYT16 | SID152146965 | no change | no change | 0.08 | -0.4 |
| CREG1 | SID152152768 | no change | no change | 0.86 | 0.13 |
| EME2 | SID135625235 | no change | no change | 0.05 | -1.04 |
| BICC1 | SID135622425 | no change | no change | -0.12 | 1.16 |
| ARL6IP4 | SID152152281 | no change | no change | 0.22 | 0.48 |
| ZNF558 | SID134319767 | no change | no change | 0.04 | -0.42 |
| SLC2A13 | SID135621398 | no change | no change | -0.06 | -0.58 |
| TMEM214 | SID152148632 | no change | no change | 0.55 | -0.52 |
| NUPR1 | SID135622409 | no change | no change | -0.08 | 2.69 |

Targets listed so far whose target name starts with P or p:
| Gene | PubChem SID | viability hit class | caspase hit class | viability robust z-score | caspase robust z-score |
| --- | --- | --- | --- | --- | --- |
| PRPH2 | SID135622054 | no change | no change | 0.02 | -0.84 |
| POGLUT1 | SID134320144 | no change | no change | 0.93 | 0.94 |
